Reference: PubChem BioAssay AID1259308 (NCATS, 2017)
Assay: 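Genes whose loss raises luciferase production in HEK293 cells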 (primary screen). Cells: human HEK293 embryonic kidney cells stably expressing firefly luciferase (HEK-CMV-Luc2-Hygro). Knock-down reagent: single siRNA against human genes, 0.8 pmol siRNA per well. Duration: 72 h. Detection: 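Luciferase light (ONE-Glo) measured on one replicate plate set and viability (CellTiter-Glo) on the other, scaled to a negative control siRNA, with robust z-scores and luciferase per cell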. Direction: total luciferase, z-score: higher = more reporter protein produced. Call rule: 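Active when the median/MAD z-score for overall luciferase is greater than 3; a gene was taken forward for validation with new siRNAs if at least two of its three siRNAs passed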. Meaning of the calls: active = raised luciferase; inactive = no rise.
The whole screen tested about 59,000 reagents; this is a random part of them. In the full data, about 1,510 (2.6%) got an active call. 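Calls use total luciferase alone and ignore viability, so some active siRNAs may act by altering cell number.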 Not all columns of the deposit are shown.

| Gene | PubChem SID | total luciferase, z-score | outcome |
| --- | --- | --- | --- |
| HMGB4 (high mobility group box 4) | SID160732430 | -0.402 | inactive |
| HMGB4 (high mobility group box 4) | SID160756638 | -0.518 | inactive |
| HMGB4 (high mobility group box 4) | SID160756639 | 0.887 | inactive |
| IZUMO1R (IZUMO1 receptor, JUNO) | SID160725254 | 1.08 | inactive |
| IZUMO1R (IZUMO1 receptor, JUNO) | SID160725255 | -2.12 | inactive |
| IZUMO1R (IZUMO1 receptor, JUNO) | SID160766460 | 0.276 | inactive |
| STMN1 (stathmin 1) | SID160776526 | 0.255 | inactive |
| STMN1 (stathmin 1) | SID160776527 | 0.524 | inactive |
| STMN1 (stathmin 1) | SID160776528 | 1.28 | inactive |
| VTCN1 (V-set domain containing T cell activation inhibitor 1) | SID160749175 | 1.55 | inactive |
| VTCN1 (V-set domain containing T cell activation inhibitor 1) | SID160749176 | -0.881 | inactive |
| VTCN1 (V-set domain containing T cell activation inhibitor 1) | SID160749177 | -0.82 | inactive |
| RPS6KA4 (ribosomal protein S6 kinase A4) | SID160721227 | 0.614 | inactive |
| RPS6KA4 (ribosomal protein S6 kinase A4) | SID160721228 | 0.183 | inactive |
| RPS6KA4 (ribosomal protein S6 kinase A4) | SID160721230 | 0.323 | inactive |
| ACSL3 (acyl-CoA synthetase long chain family member 3) | SID160763653 | 0.00447 | inactive |
| ACSL3 (acyl-CoA synthetase long chain family member 3) | SID160763663 | 0.28 | inactive |
| ACSL3 (acyl-CoA synthetase long chain family member 3) | SID160763674 | -0.261 | inactive |
| LAD1 (ladinin 1) | SID160776473 | 4.17 | active |
| LAD1 (ladinin 1) | SID160776475 | 0.157 | inactive |
| LAD1 (ladinin 1) | SID160776476 | 1.18 | inactive |
| BAALC (BAALC binder of MAP3K1 and KLF4) | SID160749655 | 0.569 | inactive |
| BAALC (BAALC binder of MAP3K1 and KLF4) | SID160749656 | 0.164 | inactive |
| BAALC (BAALC binder of MAP3K1 and KLF4) | SID160749657 | 0.442 | inactive |
| SHROOM4 (shroom family member 4) | SID160746062 | 0.483 | inactive |
| SHROOM4 (shroom family member 4) | SID160746063 | 1.49 | inactive |
| SHROOM4 (shroom family member 4) | SID160746064 | -0.0903 | inactive |
| NDUFA9 (NADH:ubiquinone oxidoreductase subunit A9) | SID160777856 | 0.187 | inactive |
| NDUFA9 (NADH:ubiquinone oxidoreductase subunit A9) | SID160777857 | 1.01 | inactive |
| NDUFA9 (NADH:ubiquinone oxidoreductase subunit A9) | SID160777858 | 1.35 | inactive |
| LITAF (lipopolysaccharide induced TNF factor) | SID160722394 | 1.35 | inactive |
| LITAF (lipopolysaccharide induced TNF factor) | SID160722395 | -0.0423 | inactive |
| LITAF (lipopolysaccharide induced TNF factor) | SID160722396 | -1.13 | inactive |
| TMCO6 (transmembrane and coiled-coil domains 6) | SID160743658 | 1.09 | inactive |
| TMCO6 (transmembrane and coiled-coil domains 6) | SID160743659 | -0.187 | inactive |
| TMCO6 (transmembrane and coiled-coil domains 6) | SID160743660 | 1.99 | inactive |

Active calls, of those listed so far:
| Gene | PubChem SID | total luciferase, z-score | outcome |
| --- | --- | --- | --- |
| LAD1 (ladinin 1) | SID160776473 | 4.17 | active |

Next reagents follow:
| Gene | PubChem SID | total luciferase, z-score | outcome |
| --- | --- | --- | --- |
| EXOG (exo/endonuclease G) | SID160723501 | 0.477 | inactive |
| EXOG (exo/endonuclease G) | SID160723502 | -0.787 | inactive |
| EXOG (exo/endonuclease G) | SID160723503 | -0.188 | inactive |
| PMF1 (polyamine modulated factor 1) | SID160730267 | 0.483 | inactive |
| PMF1 (polyamine modulated factor 1) | SID160730268 | 1.66 | inactive |
| PMF1 (polyamine modulated factor 1) | SID160730269 | -2.54 | inactive |
| AADAC (arylacetamide deacetylase) | SID160776755 | -0.599 | inactive |
| AADAC (arylacetamide deacetylase) | SID160776766 | 0.89 | inactive |
| AADAC (arylacetamide deacetylase) | SID160776777 | 0.579 | inactive |
| POMT2 (protein O-mannosyltransferase 2) | SID160739382 | -0.156 | inactive |
| POMT2 (protein O-mannosyltransferase 2) | SID160739383 | -0.623 | inactive |
| POMT2 (protein O-mannosyltransferase 2) | SID160739384 | -0.498 | inactive |
| DDX55 (DEAD-box helicase 55) | SID160746601 | -0.794 | inactive |
| DDX55 (DEAD-box helicase 55) | SID160746602 | 0.563 | inactive |
| DDX55 (DEAD-box helicase 55) | SID160746603 | -0.412 | inactive |
| PHF24 (PHD finger protein 24) | SID160732755 | 0.037 | inactive |
| PHF24 (PHD finger protein 24) | SID160736072 | -0.373 | inactive |
| PHF24 (PHD finger protein 24) | SID160736073 | 0.4 | inactive |
| PRKDC (protein kinase, DNA-activated, catalytic subunit) | SID160776160 | -1.64 | inactive |
| PRKDC (protein kinase, DNA-activated, catalytic subunit) | SID160776170 | 0.138 | inactive |
| PRKDC (protein kinase, DNA-activated, catalytic subunit) | SID160776181 | 0.00199 | inactive |
| PDZD8 (PDZ domain containing 8) | SID160755691 | 0.216 | inactive |
| PDZD8 (PDZ domain containing 8) | SID160755692 | 0.713 | inactive |
| PDZD8 (PDZ domain containing 8) | SID160755693 | 0.412 | inactive |
| NMNAT2 (nicotinamide nucleotide adenylyltransferase 2) | SID160735343 | -1.07 | inactive |
| NMNAT2 (nicotinamide nucleotide adenylyltransferase 2) | SID160735344 | 3.53 | active |
| NMNAT2 (nicotinamide nucleotide adenylyltransferase 2) | SID160735345 | 2.97 | inactive |
| SLC7A3 | SID160752857 | -1.75 | inactive |
| SLC7A3 | SID160752858 | -1.89 | inactive |
| SLC7A3 | SID160752859 | -0.681 | inactive |
| TTLL6 (tubulin tyrosine ligase like 6) | SID160763147 | -1.03 | inactive |
| TTLL6 (tubulin tyrosine ligase like 6) | SID160763148 | 0.503 | inactive |
| TTLL6 (tubulin tyrosine ligase like 6) | SID160763149 | -0.705 | inactive |
| SP100 (SP100 nuclear body protein) | SID160717235 | 0.0103 | inactive |
| SP100 (SP100 nuclear body protein) | SID160717236 | -0.0668 | inactive |
| SP100 (SP100 nuclear body protein) | SID160717237 | -0.667 | inactive |
| UBAP1 (ubiquitin associated protein 1) | SID160740463 | 1.13 | inactive |
| UBAP1 (ubiquitin associated protein 1) | SID160740464 | 1.27 | inactive |
| UBAP1 (ubiquitin associated protein 1) | SID160740465 | -0.145 | inactive |
